Reference: paper PMC3423437, “Characterization of Multisugar-Binding C-Type Lectin (SpliLec) from a Bacterial-Challenged Cotton Leafworm, Spodoptera littoralis” (PLoS ONE, 2012)

test system: T1, SpliLec (purified mature peptide); assay: inhibition of hemagglutination, cow erythrocytes (serial dilution); type: binding, Spodoptera littoralis; details: SpliLec 1.0 µg/ml, TBS, 5 mM CaCl2, 37°C, 1 h; competes with erythrocytes
T1 construct: mature peptide, 291 residues (18-residue signal peptide removed), two CRDs; pPROEX HTa His tag, E. coli DH5alpha, Ni-NTA; 35 kDa subunit, 140 kDa tetramer
From the text: inhibition of hemagglutination, cow erythrocytes (serial dilution) on SpliLec (purified mature peptide)

SMILES | Minimum inhibitory concentration (mM or μg/ml) / Immunized haemolymph / 72 h [mM] | Minimum inhibitory concentration (mM or μg/ml) / Purified SpliLec [mM]
CC(=O)N[C@H]1C(O)O[C@H](CO)[C@H](O)[C@@H]1O (stereo partly shown) [N- Acetylgalactosamine] | 10 (≈ 2210 µg/mL) | –
OC[C@H]1O[C@@](CO)(O[C@H]2O[C@H](CO)[C@@H](O)[C@H](O)[C@H]2O)[C@@H](O)[C@@H]1O [Sucrose] | – | 100 (≈ 34200 µg/mL)
OC[C@H]1O[C@@H](O[C@H]2[C@H](O)[C@@H](O)C(O)O[C@@H]2CO)[C@H](O)[C@@H](O)[C@H]1O (stereo partly shown) [Lactose] | 10 (≈ 3420 µg/mL) | –
OCC1(O)OC[C@@H](O)[C@@H](O)[C@@H]1O (stereo partly shown) [Fructose] | – | 100 (≈ 18000 µg/mL)
CC(=O)N[C@H]1C(O)O[C@H](CO)[C@@H](O)[C@@H]1O (stereo partly shown) [N- Acetylglucosamine] | – | 30 (≈ 6640 µg/mL)
OC[C@H]1OC(O)[C@H](O)[C@@H](O)[C@H]1O (stereo partly drawn) [D-Galactose] | – | 3 (≈ 540 µg/mL)
OC[C@H]1O[C@H](OC[C@H]2O[C@H](O[C@]3(CO)O[C@H](CO)[C@@H](O)[C@@H]3O)[C@H](O)[C@@H](O)[C@@H]2O)[C@H](O)[C@@H](O)[C@H]1O [Raffinose] | 10 (≈ 5040 µg/mL) | –
OC1OC[C@@H](O)[C@H](O)[C@H]1O (stereo partly drawn) [D-Xylose] | – | 50 (≈ 7510 µg/mL)
OC[C@H]1OC(O)[C@@H](O)[C@@H](O)[C@@H]1O (stereo partly drawn) [D-Mannose] | – | 10 (≈ 1800 µg/mL)
OC[C@H]1OC(O)[C@H](O)[C@@H](O)[C@@H]1O (stereo partly drawn) [D-Glucose] | – | 30 (≈ 5400 µg/mL)

In brackets after ≈: the same amount, converted by molar mass.
